The record followed here is paper PMC5412559.

No constants are given. Whether binding was seen depends on the method and setting. In cells and extracts the contact can be indirect. Binding can be weak; no strength is given. Sequences can lack the tags named with a protein.

In this assay the target is T1, Toll-6-3×HA (Drosophila melanogaster) (UniProt Q9VUN0).
T1 sequence: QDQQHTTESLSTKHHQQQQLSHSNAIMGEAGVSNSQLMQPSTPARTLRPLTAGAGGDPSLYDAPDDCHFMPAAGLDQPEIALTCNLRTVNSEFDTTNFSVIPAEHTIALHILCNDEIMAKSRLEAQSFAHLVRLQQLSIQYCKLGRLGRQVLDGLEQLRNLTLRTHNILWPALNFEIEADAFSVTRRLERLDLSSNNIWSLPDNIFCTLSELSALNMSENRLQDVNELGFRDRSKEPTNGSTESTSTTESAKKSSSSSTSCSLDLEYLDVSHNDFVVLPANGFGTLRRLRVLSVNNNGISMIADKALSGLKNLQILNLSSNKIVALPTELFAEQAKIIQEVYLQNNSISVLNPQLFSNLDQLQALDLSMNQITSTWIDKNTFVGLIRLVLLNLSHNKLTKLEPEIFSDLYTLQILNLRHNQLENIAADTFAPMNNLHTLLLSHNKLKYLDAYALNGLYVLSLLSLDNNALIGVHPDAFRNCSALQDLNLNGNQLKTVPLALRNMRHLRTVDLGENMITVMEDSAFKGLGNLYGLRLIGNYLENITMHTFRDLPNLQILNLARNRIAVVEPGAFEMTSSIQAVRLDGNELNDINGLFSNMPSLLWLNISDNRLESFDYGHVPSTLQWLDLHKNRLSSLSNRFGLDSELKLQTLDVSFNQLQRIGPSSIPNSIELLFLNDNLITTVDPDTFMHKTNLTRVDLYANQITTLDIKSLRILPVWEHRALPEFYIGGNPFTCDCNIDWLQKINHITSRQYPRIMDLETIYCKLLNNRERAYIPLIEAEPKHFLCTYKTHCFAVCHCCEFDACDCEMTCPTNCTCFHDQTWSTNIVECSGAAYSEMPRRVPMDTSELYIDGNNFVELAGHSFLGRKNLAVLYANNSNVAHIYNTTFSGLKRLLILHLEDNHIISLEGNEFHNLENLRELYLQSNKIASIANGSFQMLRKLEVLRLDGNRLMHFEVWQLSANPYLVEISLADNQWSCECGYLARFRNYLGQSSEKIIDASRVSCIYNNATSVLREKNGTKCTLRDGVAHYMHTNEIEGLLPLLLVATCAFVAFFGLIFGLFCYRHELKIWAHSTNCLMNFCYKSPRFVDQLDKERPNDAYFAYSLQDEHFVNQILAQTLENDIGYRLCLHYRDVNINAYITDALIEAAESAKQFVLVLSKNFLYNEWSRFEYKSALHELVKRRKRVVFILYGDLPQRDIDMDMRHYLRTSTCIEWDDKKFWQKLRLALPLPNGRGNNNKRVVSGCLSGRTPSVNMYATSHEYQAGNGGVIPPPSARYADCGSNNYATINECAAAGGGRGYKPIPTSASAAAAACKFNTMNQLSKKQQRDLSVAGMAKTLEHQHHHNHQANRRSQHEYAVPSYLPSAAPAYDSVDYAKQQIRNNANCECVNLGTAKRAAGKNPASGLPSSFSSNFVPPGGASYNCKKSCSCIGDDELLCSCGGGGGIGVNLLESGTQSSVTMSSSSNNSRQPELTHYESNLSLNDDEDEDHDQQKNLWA
Briefly: co-IP; S2 cells cotransfected with Toll-6-3×HA and Pro-TEV6HisV5-DNT1-CK-CTD, or Toll-7-3×HA and Pro-TEV6HisV5-DNT2-CK; which partner was precipitated is not told in the text (Fig. S3).

In the case of “Pro-TEV6HisV5-DNT1-CK-CTD (Drosophila melanogaster) (ligand)”, the binding entry is given as “binds”.
